The whole screen tested about 400,000 compounds, of which about 13,000 (3.2%) were called active. Inconclusive means that the source gave no clear call. Such entries were picked first, then a sample of the others. The call rests on the fitted dose curve; in most records, active means well fitted cell-killing curve with a large enough effect; inconclusive means small, poorly fitted or top-dose-only effect, or effect the other way; inactive means flat fitted curve, though single readings scatter. Potencies of inconclusive entries are doubtful fits and often do not repeat.
Assay: qHTS assay for MDR1-selective chemotherapeutics: Primary screen using the drug-selected MDR subline cells KB-V1; further: nearly all actives have a fitted effect of over 60% in size
Conditions: KB-V1 MDR cells viability, CellTiter-Glo, 72 h; activity change, negative = cytotoxicity: at 46.1 µM (top of the series)
Outline: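 Following 72 h at 37 degrees C with compound, KB-V1 cell viability was read by CellTiter-Glo luminescence, medium being phenol-red-free DMEM plus 10% FBS; concentration-response parameters came from normalized, curve-fitted qHTS data.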
On the % scale 0 is the no-effect control and ±100 the full control effect; potency means the concentration at half of the fitted maximal effect.

Compound	Potency	activity change, negative = cytotoxicity
Cc1nc(CS(=O)(=O)c2ccc(Cl)cc2)sc1C(=O)O	inactive	
Cc1nn(C)c(C)c1CN(Cc1nc(-c2cc(F)ccc2F)oc1C)C1CC1	active: 16.4 µM	
CCn1ccc2c(OCC(=O)Nc3ccccc3C(F)(F)F)cccc2c1=O	inconclusive: 14.6 µM [cytotoxic, partial curve]	
CCC(C)NC(=O)C1=CCN(S(=O)(=O)c2ccc(C)cc2)CC1 (stereo unspecified)	inactive	
CCOC(=O)C(Sc1cc(-c2ccccc2)nc2ncnn12)C(C)=O (stereo unspecified)	inactive	
Cc1onc(-c2ccccc2Cl)c1C(=O)NC(=S)NCCc1ccccc1	inconclusive: 20.6 µM [cytotoxic, single point]	
COc1ccccc1CNC(=O)CSCc1cnn(-c2ccccc2)c1-n1cccc1	inconclusive: 13 µM [cytotoxic, partial curve]	
Nc1ccccc1Nc1cc(-c2ccccc2)[nH]n1	inconclusive: 18.4 µM [cytotoxic, single point]	
CC(C)CN1CCN(C(=O)CCc2nnc(Cc3c[nH]c4ccccc34)o2)[C@@H](C)C1=O	inconclusive: 10.3 µM [rising, partial curve, poor fit]	
COc1ccc(C2Nc3ccccc3C(=O)N2O)cc1OC (stereo unspecified)	active: 14.6 µM	
Oc1ccc(/C=N/n2cc(-c3ccccc3)[nH]c2=S)cc1	inconclusive: 29.1 µM [rising, single point]	
Cc1ccccc1NCCC(=O)Nc1ccc(Cl)cc1	inconclusive: 29.1 µM [cytotoxic, single point]	
CC(C)(C)NC(=O)NC(=O)CSc1ccc(S(=O)(=O)N2CCCCC2)cn1	inactive	
CCN(CC)S(=O)(=O)c1cc(NC(=O)CCn2[nH]c(=O)ccc2=O)ccc1C	inconclusive: 16.4 µM [rising, single point]	
Cc1ccc(C)c(-n2c(N)c(C#N)c3nc4ccccc4nc32)c1	inactive	
COc1cccc2cc(C(=O)C3=C(O)C(=O)N(CCN4CCOCC4)C3c3cccc(Cl)c3)oc12 (stereo unspecified)	inconclusive: 29.1 µM [cytotoxic, single point]	
C=CCN1c2ccccc2Sc2cnccc21	inconclusive: 20.6 µM [cytotoxic, single point]	
CC1=Nc2cc(C(=O)NCCCN3CCOCC3)ccc2Sc2c(C)ccc(C)c21	inconclusive: 20.6 µM [cytotoxic, single point]	
O=C(NC1CCN(S(=O)(=O)c2cccc(Cl)c2)CC1)C1CCCCC1	inconclusive: 14.6 µM [cytotoxic, partial curve]	
C#Cc1ccc([C@@H]2C=C(C(=O)NCc3ccccc3)O[C@H](OCC)[C@H]2CCCO)cc1	inconclusive: 5.17 µM [rising, full curve, poor fit]	
CC(C)[C@H](NS(=O)(=O)c1ccc2c(c1)OCCO2)C(=O)OCC(=O)Nc1cc(Cl)ccc1Cl	inactive	
C#CCNc1nc(C(C)C)nc2c1nnn2Cc1ccccc1F	inconclusive: 11.6 µM [cytotoxic, partial curve]	
COc1ccc(-c2nnc(NC(=O)c3ccccc3C)o2)cc1	inactive	
CCOC(=O)C1(CCOc2ccccc2)CCN(Cc2ccc3nonc3c2)CC1	inconclusive: 14.6 µM [cytotoxic, partial curve]	

Retrieved by compound from above, three records:
Compound	Potency	activity change, negative = cytotoxicity
C=CCN1c2ccccc2Sc2cnccc21	inconclusive: 20.6 µM [cytotoxic, single point]	
CCN(CC)S(=O)(=O)c1cc(NC(=O)CCn2[nH]c(=O)ccc2=O)ccc1C	inconclusive: 16.4 µM [rising, single point]	
CCC(C)NC(=O)C1=CCN(S(=O)(=O)c2ccc(C)cc2)CC1 (stereo unspecified)	inactive	

Following part:

Compound	Potency	activity change, negative = cytotoxicity
COc1cccc(OC)c1NC(=O)CN1CCN(C)CC1	inactive	
CSc1ncccc1C(=O)OCC(=O)c1ccc(S(=O)(=O)N2CCCCC2)cc1	active: 23.1 µM	
CNC(=O)c1ccc(=O)n(Cc2cccc(C(F)(F)F)c2)c1	inactive	
S=C(NCC1COc2ccccc2O1)Nc1ccccc1 (stereo unspecified)	inconclusive: 23.1 µM [cytotoxic, single point]	
O=C(CSc1ncnc2c1cnn2CCc1ccccc1)Nc1cccc(C(F)(F)F)c1	inactive	
CCOC(=O)C1=C(C)N2C(=C(C#N)[C@@H]1c1ccc(C(=O)OC)cc1)SC[C@@]2(O)C(C)(C)C	inconclusive: 29.1 µM [cytotoxic, single point]	
COc1cccc(CNc2cc(C)nc3nc(-c4ccc(C)cc4)nn23)c1	inconclusive: 10.3 µM [cytotoxic, partial curve, poor fit]	
COC(=O)CN1C(=O)[C@H]2[C@@H](C3CC3)N3C(=O)CN(Cc4ccccn4)C(=O)[C@@]3(Cc3ccccc3)[C@H]2C1=O	inactive	
CC(=O)Nc1ccc(S(=O)(=O)NCCC(=O)OCc2ccccc2F)cc1	inconclusive: 32.6 µM [cytotoxic, single point]	
CCC(=O)N1CCC1(C)C(=O)Nc1ccc2c(c1)OCO2 (stereo unspecified)		inconclusive: -31% [cytotoxic]
O=C(NCC(c1ccco1)S(=O)(=O)c1cccs1)c1ccccc1F (stereo unspecified)	inactive	
O=[N+]([O-])c1cc(N=Nc2ccc3ccccc3c2)ccc1O	inactive	
Cc1ccc(CN2CCN(CC(=O)N=Nc3c(O)[nH]c4ccccc34)CC2)cc1	inconclusive: 8.2 µM [cytotoxic, partial curve]	
CCOc1ccc(-n2c(=O)[nH]c3sc4c(c3c2=O)CCCC4)cc1	inconclusive: 0.731 µM [rising, full curve, poor fit]	
COc1ccccc1/C=C1/SC(=S)N(CCC(=O)Nc2cccnc2)C1=O	inactive	
CCc1ccc(NC(=O)COC(=O)C2(c3ccc(Cl)cc3)CCCC2)cc1	active: 18.4 µM	
COc1cc(CNC(=O)c2cccc(COc3ccc(Cl)cc3)c2)cc(OC)c1	inconclusive: 23.1 µM [cytotoxic, partial curve]	
Cc1ccc(N2CC(C)Cn3c2nc2c3c(=O)n(Cc3cccc(Cl)c3)c(=O)n2C)cc1 (stereo unspecified)	inactive	
COc1ccc(NC(=O)c2oc3ccc(S(=O)(=O)N4CCOCC4)cc3c2C)cc1	inconclusive: 20.6 µM [cytotoxic, partial curve]	
CCCCn1c(N)c(N(CC)C(=O)c2c(C)noc2C)c(=O)[nH]c1=O	inactive	
Cc1ccccc1OCCC(=O)OCC(=O)Nc1c(F)cccc1F	inactive	
O=C1S/C(=C/c2ccc(N3CCOCC3)o2)C(=O)N1Cc1ccc(F)cc1	inactive	
CC(C)(C)OC(=O)N[C@@H](Cc1ccccc1)c1nnc(SCC(=O)c2ccc(Cl)cc2)o1	active: 16.4 µM	
COc1ccc(C(=O)NCC(=O)N/N=C/c2cn(C)c3ccccc23)cc1OC	inconclusive: 29.1 µM [rising, single point]	

Compound	Potency	activity change, negative = cytotoxicity
CCOC(=O)Nc1ccc(NS(=O)(=O)c2ccc(C)cc2)cc1	inconclusive: 29.1 µM [cytotoxic, single point]	
O=C(O)c1ccccc1NSc1ccccc1[N+](=O)[O-]	inactive	
Cc1ccc(S(=O)(=O)N(CC(=O)NCC2CCCO2)c2cccc([N+](=O)[O-])c2)cc1 (stereo unspecified)	inconclusive: 29.1 µM [cytotoxic, single point]	
COc1cc(C2Nc3c(C)cc(C)cc3-c3cc(C)nn32)cc(OC)c1O (stereo unspecified)	inconclusive: 13 µM [cytotoxic, partial curve, poor fit]	
O=C(NC1CC1)C1=C[C@@H](c2c[nH]c3ccccc23)C[C@@H](OCCCCO)O1	inactive	
O=C(c1ccc(Cl)c(S(=O)(=O)N2CCOCC2)c1)N1CCc2ccccc2C1	active: 3.66 µM	
CCN(CC)C(=O)CSc1nc(N)c(C(=O)Nc2ccc(OC)cc2)s1	inconclusive: 5.8 µM [cytotoxic, partial curve]	
COc1ccc(N2CCN(C(=O)Cn3cnc4c(cnn4-c4ccccc4)c3=O)CC2)cc1	inconclusive: 29.1 µM [rising, single point]	
O=S(=O)(c1ccc(-c2ccccc2)cc1)N1CCCCC1	inconclusive: 14.6 µM [cytotoxic, partial curve]	
CCOC(=O)c1sc(NC(=O)Cc2c(F)cccc2Cl)nc1C	inconclusive: 20.6 µM [cytotoxic, partial curve]	
Cc1cc(C)n(-c2nnc(Nc3ccc(C)c(Cl)c3)c3ccccc23)n1	inactive	
Cn1c(=O)[nH]c2cc(-c3noc(-c4ccc(C#N)cc4)n3)ccc21	inconclusive: 25.9 µM [rising, partial curve, poor fit]	
C/C(=N\OC(=O)Nc1ccc(Cl)cc1)c1ccc(F)c(F)c1	inconclusive: 20.6 µM [rising, partial curve, poor fit]	
COC(=O)c1ccc(CSc2ccc3nnc(-c4ccc(OC)c(OC)c4)n3n2)o1	active: 7.31 µM	
COc1ccc(C(=O)Nc2ccc(S(=O)(=O)N3CCOCC3)cc2)cc1OC	inactive	
CN(CC(=O)NCc1ccco1)S(=O)(=O)c1cccc2cccnc12	inconclusive: 0.461 µM [rising, full curve]	
COc1cc(CNC(C)(C)CO)cc(Br)c1OCc1ccc(Cl)cc1	active: 23.1 µM	
CC1(C(=O)NCc2cccc3ccccc23)CCN1Cc1ccc(OC(F)(F)F)cc1 (stereo unspecified)	inactive	
CC(=O)Nc1ccc(S(=O)(=O)NCC2CCC(C(=O)NCCN(CC(C)C)CC(C)C)CC2)cc1 (stereo unspecified)	inconclusive: 23.1 µM [rising, single point]	
Cc1cc(Cl)ccc1OCCCC(=O)NCCN1C(=O)S/C(=C\c2cccnc2)C1=O	inconclusive: 18.4 µM [cytotoxic, partial curve]	
COc1cccc(/C=N/Nc2ccc(S(=O)(=O)Nc3ccccc3C(=O)O)cc2[N+](=O)[O-])c1O	inconclusive: 1.84 µM [rising, full curve]	
COc1ccc(Cn2c(C(=O)O)c(CNCCc3cc(OC)ccc3OC)c3ccc(C)cc32)cc1	inconclusive: 29.1 µM [cytotoxic, single point]	
COc1ccc([C@H]2[C@H](C(=O)OC(C)(C)C)N3N=Cc4ccccc4C3C23C(=O)c2ccccc2C3=O)cc1OC (stereo partly specified)	active: 8.2 µM	
